Taken from: PubChem BioAssay AID1259308 (NCATS, 2017)
Purpose: 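Knock-downs that increase output of a recombinant reporter protein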 (primary screen). System: human HEK293 embryonic kidney cells stably expressing firefly luciferase (HEK-CMV-Luc2-Hygro). Knock-down reagent: single siRNA against human genes, 0.8 pmol siRNA per well. Duration: 72 h. Measurement: 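Luciferase light (ONE-Glo) measured on one replicate plate set and viability (CellTiter-Glo) on the other, scaled to a negative control siRNA, with robust z-scores and luciferase per cell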. Direction: total luciferase, z-score and total luciferase, % of control: higher = more reporter protein produced; luciferase per cell, z-score: higher = more reporter output per viable cell; viable cells, % of control: higher = more viable cells. Call rule: 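An siRNA counts as active if its total luciferase robust z-score exceeds 3; genes with two or more such siRNAs out of three were retested with fresh siRNAs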. Calls: active = raised luciferase; inactive = no rise.
Here is an unselected part of about 59,000 deposited reagents. In the full data, about 1,510 (2.6%) got an active call. 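Calls use total luciferase alone and ignore viability, so some active siRNAs may act by altering cell number.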 Unmarked entries are inactive. Reagents against one gene are numbered here.

gene | reagent | total luciferase, z-score | total luciferase, % of control | luciferase per cell, z-score | viable cells, % of control
BCL7C (BAF chromatin remodeling complex subunit BCL7C) | 1 | 0.252 | 86.9 | 0.319 | 89.3
BCL7C (BAF chromatin remodeling complex subunit BCL7C) | 2 | -0.597 | 70 | -0.449 | 88.1
BCL7C (BAF chromatin remodeling complex subunit BCL7C) | 3 | -0.0326 | 81.2 | -0.718 | 110
TMEM204 (transmembrane protein 204) | 1 | -1.08 | 60.5 | -1.75 | 107
TMEM204 (transmembrane protein 204) | 2 | -0.0881 | 80.1 | -0.238 | 95.3
TMEM204 (transmembrane protein 204) | 3 | -1.86 | 45 | -2.48 | 96.7
SLC10A5 | 1 | 1.05 | 103 | 0.695 | 95.7
SLC10A5 | 2 | 0.0803 | 83.5 | -0.251 | 99.7
SLC10A5 | 3 | 1.8 | 118 | 1.17 | 96.6
RO60 (Ro60, Y RNA binding protein) | 1 | -0.369 | 74.5 | -0.858 | 104
RO60 (Ro60, Y RNA binding protein) | 2 | -1.66 | 48.8 | -1.49 | 80.8
RO60 (Ro60, Y RNA binding protein) | 3 | -0.498 | 72 | -0.487 | 91.4
DCLRE1A (DNA cross-link repair 1A) | 1 | -0.536 | 71.2 | 0.154 | 76.4
DCLRE1A (DNA cross-link repair 1A) | 2 | 1.37 | 109 | 3.9 | 43.7
DCLRE1A (DNA cross-link repair 1A) | 3 | 0.44 | 90.6 | 0.48 | 89.2
DDX17 (DEAD-box helicase 17) | 1 | -2.12 | 39.7 | -2.77 | 92.1
DDX17 (DEAD-box helicase 17) | 2 | -0.469 | 72.6 | 0.472 | 71.6
DDX17 (DEAD-box helicase 17) | 3 | 0.352 | 88.9 | -0.422 | 111
USP36 (ubiquitin specific peptidase 36) | 1 | 0.291 | 87.7 | -0.238 | 104
USP36 (ubiquitin specific peptidase 36) | 2 | -0.324 | 75.4 | -0.362 | 92.7
USP36 (ubiquitin specific peptidase 36) | 3 | -0.354 | 74.8 | -0.436 | 93.8

Reformatted: 2 of the entries above.
DCLRE1A (DNA cross-link repair 1A) #1
- total luciferase, z-score: -0.536
- total luciferase, % of control: 71.2
- luciferase per cell, z-score: 0.154
- viable cells, % of control: 76.4

DCLRE1A (DNA cross-link repair 1A) #2
- total luciferase, z-score: 1.37
- total luciferase, % of control: 109
- luciferase per cell, z-score: 3.9
- viable cells, % of control: 43.7

Further reagents:
gene | reagent | total luciferase, z-score | total luciferase, % of control | luciferase per cell, z-score | viable cells, % of control
DRD5 (dopamine receptor D5) | 1 | 1.76 | 117 | 1.13 | 96.9
DRD5 (dopamine receptor D5) | 2 | -0.447 | 73 | 0.157 | 78.3
DRD5 (dopamine receptor D5) | 3 | -0.807 | 65.8 | -1.06 | 97.3
LINC00598 (long independently transcribed non-coding RNA 598) | 1 | -1.02 | 61.7 | -0.894 | 87.2
LINC00598 (long independently transcribed non-coding RNA 598) | 2 | -0.00211 | 81.8 | -0.689 | 110
LINC00598 (long independently transcribed non-coding RNA 598) | 3 | -0.502 | 71.9 | -0.22 | 85.1
LOC643441 | 1 | 0.395 | 89.8 | -0.198 | 106
LOC643441 | 2 | 1.6 | 114 | 1.9 | 76.9
LOC643441 | 3 | -0.191 | 78.1 | -0.469 | 98.7
DEFB134 (defensin beta 134) | 1 | 1.94 | 121 | 2.12 | 77
DEFB134 (defensin beta 134) | 2 | -0.389 | 74.2 | -0.32 | 90.1
DEFB134 (defensin beta 134) | 3 | -0.135 | 79.2 | -0.207 | 93.5
GLRX5 (glutaredoxin 5) | 1 | 0.167 | 85.2 | 0.421 | 85.2
GLRX5 (glutaredoxin 5) | 2 | -1.22 | 57.5 | -1.8 | 103
GLRX5 (glutaredoxin 5) | 3 | -0.788 | 66.2 | -1.57 | 112
NUDT3 (nudix hydrolase 3) | 1 | -0.34 | 75.1 | -0.456 | 94.7
NUDT3 (nudix hydrolase 3) | 2 | -1.18 | 58.5 | -1.21 | 89.8
NUDT3 (nudix hydrolase 3) | 3 | -0.0691 | 80.5 | -0.734 | 109
